Measurements reported in patent US20050112108A1.
No constants are given. Whether binding was seen depends on the method and setting. Some binding calls cover weakened binding; strength is not graded here.

Target: in vitro translated GAAP-1 (human) (UniProt P15822)
Test: EMSA, in vitro translated GAAP-1 with NF-κB oligonucleotide

- binding: binds
Substance: in vitro translated GAAP-1 (from UniProt P15822 2027-2718)
